For at least one entry, the source does not settle the construct or the ends of the probe. At least one result comes from cells or an extract, where the contact may be indirect. At least one verdict rests on a figure or table, not on a statement of the authors.
Test system: NF-kB p50 + NF-kB cRel
Test: EMSA
Conditions: latent S11 nuclear extract, labeled probe; protein in an extract; label: 32P

**Q.** Does “AGTTGAGGGGACTTTCCCAGGC (double strand) [NF-kB consensus WT oligonucleotide]” bind?
**A.** Result: binds

From PMC5371897
